Measurements reported in PubChem BioAssay AID720505 (Drosophila RNAi Screening Center, 2013)
The screen tested about 20,000 reagents; shown is an unselected part of those with a known target gene and a result. Of all reagents, about 2,100 (10%) were called active. 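Raw plate signals without normalisation; calls rest on control-based scores that were not deposited; replicate 2 separates called from uncalled poorly.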 Names joined by + are all predicted targets of the reagent. Not given: the amount of reagent, the time to read-out.

- Test: 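Knock-downs that reduce calcium influx once internal stores are emptied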 (primary screen)
- System: Drosophila S2R+ cells
- Reagent: long dsRNA against Drosophila genes
- Challenge: thapsigargin (2 µM) in calcium-free buffer to empty internal stores, then 2 mM calcium added back
- Read-out: 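Stores emptied by 2 µM thapsigargin without calcium, then 2 mM calcium re-added; fluo-4 fluorescence followed by FLIPR in 384-well plates, per-well averaged endpoint, raw; two screen passes, some wells retested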
- Scale: calcium signal and retest calcium signal: higher = more calcium entry after store depletion
- Call rule: 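About 1500 genes called as lowering calcium entry, by varying amounts, judged against per-plate control wells with STIM1 as positive and Rho1 as negative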
- Calls: active = called as lowering calcium entry; inactive = not called

target gene | DRSC id | calcium signal, replicate 1 | calcium signal, replicate 2 | retest calcium signal, replicate 1 | retest calcium signal, replicate 2 | activity call
inaE | DRSC19376 | 73 | 88.1 | – | – | active
inaE | DRSC19377 | 90.9 | 58.5 | – | – | active
inaE | DRSC19379 | 75.4 | 80 | 84.6 | 95.1 | inactive
inaE | DRSC19726 | 78.1 | 86.5 | – | – | inactive
Ptp61F | DRSC08683 | 98 | 145 | – | – | inactive
mEFTu1 | DRSC06959 | 157 | 140 | – | – | inactive
MrgBP | DRSC06417 | 86.6 | 128 | – | – | inactive
CG34325 | DRSC19802 | 88.8 | 137 | – | – | inactive
CG34325 | DRSC20200 | 100 | 155 | – | – | inactive
FeCH | DRSC16948 | 117 | 106 | – | – | inactive
Spn42Da | DRSC05025 | 79.5 | 112 | – | – | inactive
Vps11 | DRSC11909 | – | – | – | – | active
Vps11 | DRSC21579 | 213 | 104 | – | – | inactive
piwi | DRSC03592 | 90.5 | 90.9 | – | – | inactive
Atg4a | DRSC00656 | 141 | 326 | – | – | inactive
Ccz1 | DRSC08439 | 84.1 | 73.1 | – | – | inactive
Eaf | DRSC05050 | 118 | 91.7 | – | – | inactive
Eaf | DRSC06052 | 213 | 77.1 | – | – | inactive
Eaf | DRSC22028 | 92.9 | 166 | – | – | inactive
CG1965 | DRSC12577 | 107 | 78.1 | 111 | 110 | inactive
CG1965 | DRSC21828 | 133 | 91.1 | – | – | inactive
Non2 | DRSC08272 | 66.2 | 115 | – | – | active
Eaat1 | DRSC03321 | 225 | 264 | – | – | inactive
CG17839 | DRSC10290 | 127 | 148 | – | – | inactive
CG17839 | DRSC10291 | 93.7 | 165 | – | – | inactive
Nplp3 | DRSC09944 | 76.2 | 139 | – | – | inactive
CG8312 | DRSC16406 | 157 | 107 | – | – | inactive
CG8568 | DRSC20113 | 142 | 103 | – | – | inactive
sktl | DRSC04715 | 153 | 79.2 | – | – | inactive
CG7741 | DRSC07035 | 135 | 225 | – | – | inactive
sinu | DRSC09752 | 127 | 164 | – | – | inactive
Mst33A | DRSC03371 | 164 | 175 | – | – | inactive
CG10527 | DRSC04078 | 170 | 111 | – | – | inactive
ppk20 | DRSC16260 | 133 | 111 | – | – | inactive
Rpp20 + CG33932 | DRSC19467 | 32.9 | 98 | – | – | active
EbpIII | DRSC04638 | 82.5 | 126 | – | – | inactive
Irp-1A | DRSC16719 | 142 | 354 | 118 | 112 | inactive
hdm | DRSC18013 | 161 | 116 | – | – | inactive
CG14327 | DRSC14806 | 99.1 | 116 | – | – | inactive
mus201 + Chrac-14 | DRSC03568 | 172 | 122 | – | – | inactive
mus201 + Chrac-14 | DRSC03575 | 172 | 131 | – | – | inactive
CG34445 | DRSC22404 | 81.6 | 131 | – | – | inactive
Nlp | DRSC16759 | 103 | 149 | – | – | inactive
CG3631 | DRSC15503 | 132 | 171 | – | – | inactive
CG14262 | DRSC14757 | 158 | 145 | – | – | inactive
TFAM | DRSC15552 | 168 | 291 | – | – | inactive
CG13157 | DRSC06282 | 130 | 209 | – | – | inactive
CngB | DRSC04297 | 69.3 | 128 | – | – | active

Records listed so far whose gene name begins with S or s (3):
target gene | DRSC id | calcium signal, replicate 1 | calcium signal, replicate 2 | retest calcium signal, replicate 1 | retest calcium signal, replicate 2 | activity call
Spn42Da | DRSC05025 | 79.5 | 112 | – | – | inactive
sktl | DRSC04715 | 153 | 79.2 | – | – | inactive
sinu | DRSC09752 | 127 | 164 | – | – | inactive

The listing continues.
target gene | DRSC id | calcium signal, replicate 1 | calcium signal, replicate 2 | retest calcium signal, replicate 1 | retest calcium signal, replicate 2 | activity call
mthl10 | DRSC08504 | 102 | 108 | – | – | inactive
mthl10 | DRSC08505 | 93.1 | 84.1 | – | – | inactive
CG10934 | DRSC06017 | 156 | 106 | – | – | inactive
CG14626 | DRSC18631 | 112 | 130 | – | – | inactive
CG1647 | DRSC15134 | 133 | 129 | – | – | inactive
CG9636 | DRSC16529 | 106 | 85.8 | – | – | inactive
CG42720 (retired record) | DRSC22549 | 78.5 | 141 | – | – | inactive
arg | DRSC18737 | 87 | 98.4 | – | – | inactive
Or2a | DRSC18690 | 120 | 110 | – | – | inactive
CG34386 | DRSC06467 | 167 | 168 | – | – | inactive
CG34386 | DRSC06468 | 186 | 205 | – | – | inactive
CG34386 | DRSC23234 | 90.6 | 128 | – | – | inactive
srl | DRSC12340 | 104 | 191 | – | – | inactive
CG18870 | DRSC04313 | 211 | 134 | – | – | inactive
Tsf1 | DRSC20296 | 111 | 144 | – | – | inactive
Mettl2 | DRSC08398 | 166 | 158 | – | – | inactive
del | DRSC03170 | 143 | 89.2 | – | – | inactive
twi | DRSC04720 | 116 | 172 | – | – | inactive
twi | DRSC23185 | 107 | 138 | – | – | inactive
CG1545 | DRSC21532 | 122 | 90.5 | – | – | inactive
LUBEL | DRSC02141 | 161 | 113 | – | – | inactive
Fie | DRSC08158 | 66.3 | 114 | – | – | active
CG18343 | DRSC06726 | 61.7 | 112 | – | – | active
CG16854 | DRSC02536 | 170 | 144 | – | – | inactive
nrv3 | DRSC03097 | 136 | 159 | – | – | inactive
JTBR | DRSC08667 | 106 | 127 | – | – | inactive
CG15435 | DRSC00450 | 93.7 | 117 | – | – | inactive
mdlc | DRSC15690 | 187 | 290 | – | – | inactive
ZnT49B | DRSC07225 | 54.6 | 193 | – | – | active
CG14062 | DRSC14725 | 147 | 187 | – | – | inactive
CG4702 | DRSC15626 | 117 | 125 | – | – | inactive
CG14339 | DRSC00369 | 302 | 170 | – | – | inactive
santa-maria | DRSC00994 | 126 | 86.6 | – | – | inactive
santa-maria | DRSC02180 | 128 | 167 | – | – | inactive
CG6028 | DRSC15951 | 119 | 149 | – | – | inactive
